# Data reported in the supplement of paper PMC3334620.
# The full ranking holds about 33,000 sequences; the median of “E-score (-0.5 to 0.5)” is about -8e-05, and the highest 2% start at about 0.23. The list shows a part of the results.
# Molecular target: T1, Nrg2 (UniProt P38082)
# T1 sequence: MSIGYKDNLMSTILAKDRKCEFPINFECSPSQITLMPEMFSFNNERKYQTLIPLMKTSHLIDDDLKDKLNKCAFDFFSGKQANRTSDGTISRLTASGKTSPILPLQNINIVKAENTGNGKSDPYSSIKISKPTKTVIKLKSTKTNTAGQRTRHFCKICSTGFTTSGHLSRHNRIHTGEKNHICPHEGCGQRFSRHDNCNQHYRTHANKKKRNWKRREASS
# Assay: PBM E-score (8-mer binding enrichment) (E-score (-0.5 to 0.5)); higher = stronger / more preferred TF binding
# Conditions: protein concentration: 100 nM; construct: GST-full length
# Summary of the method: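 E-scores (a modified Wilcoxon-Mann-Whitney statistic) were assigned by the Universal PBM Analysis Suite to every ungapped eight-base word pooled with its reverse complement. The input came from universal all-10-mer Agilent arrays made double-stranded by primer extension and probed with GST-tagged yeast transcription factors at about 100-200 nM. Fluorescent anti-GST detected bound protein, and masliner normalised the scans.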
row,Sequence,PBM E-score
1,CTGGCGAC,-0.0538
2,AACCGTCA,-0.14
3,GTACTCAC,0.138
4,TTGTCAAA,-0.0847
5,TAGGTAGA,0.136
6,AAGTAAAG,-0.074
7,CCTTCAAA,-0.027
8,ATTCCCAG,0.138
9,TTCTAAAA,-0.173
10,GTTAAAAC,-0.063
11,CATAACGG,-0.0744
12,GACCTAGA,-0.0801
13,CGCGTTAC,0.193
14,CGTCCTAA,-0.0452
15,CATTTCCC,0.201
16,ATAATGCC,0.00967
17,TACTCTGA,-0.0551
18,GCGTGCAC,-0.114
19,ATGTTGGA,0.184
20,GATACATC,0.134
21,AAAAAACT,-0.183
22,ATGTCTAC,-0.14
23,GGTTTTCA,0.153
24,GCTTTCCA,-0.0167
25,ACTTTAGC,-0.132

# 2 records picked at random from those above:
row,Sequence,PBM E-score
18,GCGTGCAC,-0.114
10,GTTAAAAC,-0.063

# Remaining list, next part:

row,Sequence,PBM E-score
1,AGGGGAAC,-0.0636
2,CTCCAAAG,-0.0656
3,AAGATGCC,0.0488
4,AGGTATGG,-0.153
5,CATAAACC,0.147
6,CCTACTCG,-0.00961
7,AGGCCGAG,0.148
8,TGGCTGAA,-0.0484
9,ATGTCGGG,-0.0685
10,CAGATCGA,0.0435
11,GATAAGGA,-0.017
12,GGAAATGA,0.25
13,AACAACTG,0.136
14,AACACTAA,0.0197
15,CGCTAGCA,-0.136
16,AATCACGT,0.116
17,GCACGAAC,0.161
18,AGAGCACG,-0.14
19,GGAATCAC,0.0314
20,CCATCTAA,0.00279
21,AAATTAAG,0.00872
22,AGTTATTA,0.144
23,CCATGCGG,-0.0705
24,CTATAACC,-0.218
25,CTTCCTGC,-0.267

row,Sequence,PBM E-score
1,CAGTGCTA,-0.0422
2,CCCCCACG,-0.338
3,GTCATGCA,0.0135
4,ACATCGGA,-0.154
5,AGCCTGTG,-0.118
6,GACTTTAA,-0.0502
7,CACTGCCG,0.102
8,ATCTCTAC,0.176
9,ACAACTTA,-0.0192
10,AGACAGGG,0.0548
11,ATAACAAA,0.17
12,ACCTTGTG,-0.0454
13,GTCCGTTA,0.138
14,CGAATAGC,-0.0913
15,AAAATACA,0.0321
16,CAGTCACC,-0.216
17,GAAGGGCA,-0.0565
18,AGGATTTC,0.0761
19,ACGGGTCT,-0.109
20,CCTGTCAG,0.153
21,AAGTAGCA,0.075
22,ATGGAACC,0.00551
23,ACTGCGCC,-0.2
24,ACGTCGCT,-0.00568
25,AATCGGCG,0.0404

row,Sequence,PBM E-score
1,TAAGGTCA,0.0329
2,CCATAAGG,-0.143
3,CACTGCAA,0.0476
4,CGCCCGGA,0.13
5,GGTTCCAC,-0.0226
6,ATTGGGCA,0.0365
7,CAGTCTAG,-0.184
8,AGTTTCCG,0.119
9,ACGGCCCA,-0.125
10,ATCGCTGG,-0.163
11,CTAGGTCA,-0.0616
12,TGAATCAA,0.232
13,ATCATCTC,0.139
14,ACGTAGAA,0.0668
15,AAACACCA,-0.0101
16,GTTCAACA,0.103
17,AAAGTCTA,-0.0546
18,ATTCCACA,0.243
19,ACTGACGC,-0.0821
20,GAGAACAA,0.221
21,CACCTTCC,-0.0147
22,TGCTGCCA,-0.0663
23,CCCATCAA,0.0956
24,GTATAGGA,-0.0401
25,AAGTTCCC,-0.0166

row,Sequence,PBM E-score
1,GCCCCAGC,0.0519
2,AGGACTTG,-0.202
3,GCGAAGGA,-0.138
4,ACGAGCGT,-0.0647
5,CGTCTGGA,-0.252
6,AGCCATGC,-0.0314
7,AACTTAGA,0.0761
8,AGATGGGG,-0.0454
9,GGATCCTA,0.0664
10,ATTTCCAA,-0.0757
11,CTCGCGGA,0.0152
12,CCATCCAG,-0.107
13,GACATTGA,0.11
14,AAATAGCA,-0.076
15,AGCTTTAT,-0.0237
16,CACTAGAC,-0.0854
17,AGCTCACA,-0.0193
18,ACTGCTAA,-0.0497
19,ATAGTGCA,0.114
20,CCAACCGA,0.104
21,AGGCCCCA,-0.115
22,GATGCAGA,0.056
23,CCTGAACG,0.0198
24,CTAACGAG,-0.055
25,ACACACAA,0.0532

# Given tab-delimited: part of the list above.
row	Sequence	PBM E-score
7	AACTTAGA	0.0761
9	GGATCCTA	0.0664
17	AGCTCACA	-0.0193

# More entries.

row,Sequence,PBM E-score
1,AGCTGAGG,-0.16
2,CGAGGACC,-0.056
3,CCGGTTCG,-0.125
4,CGAGCGCC,-0.107
5,ACCCCTAA,0.172
6,ACAAACGT,-0.0396
7,ACAAAGGT,0.103
8,GGTTTGAC,-0.147
9,CGTAGAAG,-0.049
10,ATACGTGG,-0.0714
11,TAAATCCA,0.18
12,ATATCTGG,0.0594
13,ACTACGAC,-0.011
14,CTTCATTC,0.0537
15,CTCCGCAG,0.0552
16,CTCGCTCA,0.069
17,GCATATAA,-0.0127
18,CACATTGC,0.0874
19,ATCGGATA,0.122
20,CTGCCTTA,-0.0737
21,CGTGATCC,-0.0253
22,CTGGCGCC,0.281
23,CACCCTAC,0.0654
24,CCCTAAAG,-0.143
25,CGGGGAGA,-0.201

row,Sequence,PBM E-score
1,CTGAGCTC,0.118
2,AAGCAAGG,0.128
3,AACCTCAG,0.072
4,TACCAGGA,0.181
5,TAAAGTCA,0.0955
6,ATGTAGCA,0.0546
7,CAAGGCCC,-0.0232
8,AGAATCGG,-0.129
9,ACTATATG,-0.00885
10,TTAGTGAA,0.0802
11,CAAAAGAC,-0.036
12,GATGCCCA,0.0428
13,GAGGATGC,-0.141
14,TATTGCAA,0.253
15,CGCAAAAG,-0.0895
16,CGTACCTA,-0.179
17,CATATCCC,0.214
18,CGACTCAC,-0.0757
19,AGGGGAAT,0.155
20,GGAAGCAC,0.00747
21,CTTAGAGA,-0.105
22,CTAGAGAA,-0.028

# Part of the list above, reformatted:
row | Sequence | PBM E-score
3 | AACCTCAG | 0.072
4 | TACCAGGA | 0.181
5 | TAAAGTCA | 0.0955
6 | ATGTAGCA | 0.0546
7 | CAAGGCCC | -0.0232
